Tested on: other tumor types (tumor samples vs normal tissues)
Experiment: LC-MS detection / over-presentation of peptides on additional tumor types
Design: species or system human
Details: for Other relevant organs/diseases: additional tumor types on which the peptide was found: over-presented on more than 5% of measured tumor samples, or presented on more than 5% with ratio of geometric means tumor vs normal tissues larger than 3; for Other relevant organs / diseases (additional tumor types with over-presentation): over-presented on >5% of measured tumor samples, or presented on >5% with ratio of geometric means tumor vs normal >3

Row | Substance | Other relevant organs/diseases | Other relevant organs / diseases (additional tumor types with over-presentation) | other results
1 | 241 (FIPDFIPAV; listed as Homo sapiens) [compound 241] | SCLC |  | 
2 | SEQ ID NO.: 41 (ILASIFETV; listed as Homo sapiens) |  |  | peptide additionally detected on acute myelogenous leukemias (positive/measured samples): 4/18; peptide additionally detected on bile duct and gallbladder cancers (positive/measured samples): 2/17; peptide additionally detected on breast cancers (positive/measured samples): 1/18; peptide additionally detected on chronic lymphocytic leukemias (positive/measured samples): 1/17; peptide additionally detected on kidney cancers (positive/measured samples): 2/22; peptide additionally detected on lung cancers (positive/measured samples): 10/101; peptide additionally detected on melanomas (positive/measured samples): 4/16; peptide additionally detected on ovarian cancers (positive/measured samples): 1/20; peptide additionally detected on pancreas cancers (positive/measured samples): 2/19; peptide additionally detected on pancreatic cancer cell lines (positive/measured samples): 3/20; peptide additionally detected on prostate cancers (positive/measured samples): 1/38; peptide additionally detected on urinary bladder cancers (positive/measured samples): 1/15
3 | 284 (KLQEQIHRV; listed as Homo sapiens) [compound 284] | AML |  | 
4 | 223 (FLQDIPDGLFL; listed as Homo sapiens) [compound 223] | CLL |  | 
5 | 300 (IVLERNPEL; listed as Homo sapiens) [compound 300] |  | AML | 
6 | 228 (IIAEYLSYV; listed as Homo sapiens) [compound 228] | CLL | AML, HNSCC | 
7 | 197 (YLLTDNVVKL; listed as Homo sapiens) [compound 197] | RCC, BRCA |  | 
8 | 247 (KVLEMETTV; listed as Homo sapiens) [compound 247] | Uterine Cancer | BRCA | 
9 | 309 (SLSFVSPSL; listed as Homo sapiens) [compound 309] | CLL, BRCA, Esophageal Cancer, Uterine Cancer | AML, HNSCC | 
10 | 68 (QIAAFLFTV; listed as Homo sapiens) [compound 68] | CLL, Urinary bladder cancer, Uterine Cancer | AML | 
11 | 130 (VIFSYVLGV; listed as Homo sapiens) [compound 130] | AML, Uterine Cancer |  | 
12 | 301 (LQFDGIHVV; listed as Homo sapiens) [compound 301] | SCLC, Brain Cancer | HNSCC | 
13 | 206 (SAVSGQWEV; listed as Homo sapiens) [compound 206] | CLL |  | 
14 | SEQ ID NO.: 1 (LLSGQLPTI; listed as Homo sapiens) |  |  | peptide additionally detected on chronic lymphocytic leukemias (positive/measured samples): 1/17; peptide additionally detected on lung cancers (positive/measured samples): 1/84; peptide additionally detected on ovarian cancers (positive/measured samples): 1/20; peptide additionally detected on pancreatic cancer cell lines (positive/measured samples): 1/20
15 | 66 (KLAPIPVEL; listed as Homo sapiens) [compound 66] |  | CLL, AML | 
16 | 209 (FLLDTISGL; listed as Homo sapiens) [compound 209] | CRC, HCC, CLL, AML, BRCA, Melanoma, Urinary bladder cancer, Uterine Cancer |  | 
17 | 59 (RLHREVAQV; listed as Homo sapiens) [compound 59] | Esophageal Cancer |  | 
18 | 129 (SLFEASQQL; listed as Homo sapiens) [compound 129] | CLL, Melanoma, Uterine Cancer, Gallbladder Cancer, Bile Duct Cancer |  | 
19 | 70 (VLIEILQKA; listed as Homo sapiens) [compound 70] | AML, BRCA, OC, Urinary bladder cancer, Uterine Cancer | SCLC, HNSCC | 
20 | 281 (TLQTVPLTTV; listed as Homo sapiens) [compound 281] | CLL | AML | 
21 | 240 (ALVPTPALFYL; listed as Homo sapiens) [compound 240] | BRCA | HNSCC | 

Row | Substance | Other relevant organs/diseases | Other relevant organs / diseases (additional tumor types with over-presentation) | other results
22 | 208 (FLAVSLPLL; listed as Homo sapiens) [compound 208] | CLL |  | 
23 | 127 (HLMEENMIVYV; listed as Homo sapiens) [compound 127] | Melanoma |  | 
24 | 306 (AQVALVNEV; listed as Homo sapiens) [compound 306] | Urinary bladder cancer, Uterine Cancer | Esophageal Cancer, AML | 
25 | 63 (ALIEEAYGL; listed as Homo sapiens) [compound 63] | CLL |  | 
26 | SEQ ID NO.: 5 (VLQGLTFTL; listed as Homo sapiens) |  |  | peptide additionally detected on bile duct and gallbladder cancers (positive/measured samples): 2/17; peptide additionally detected on breast cancers (positive/measured samples): 1/18; peptide additionally detected on chronic lymphocytic leukemias (positive/measured samples): 1/17; peptide additionally detected on lung cancers (positive/measured samples): 4/101; peptide additionally detected on melanomas (positive/measured samples): 2/16; peptide additionally detected on ovarian cancers (positive/measured samples): 2/20; peptide additionally detected on urinary bladder cancers (positive/measured samples): 1/15
27 | 57 (LQIGDFVSV; listed as Homo sapiens) [compound 57] | SCLC, CLL |  | 
28 | 181 (LLFDQNDKV; listed as Homo sapiens) [compound 181] | RCC, HCC, BRCA, Melanoma, Urinary bladder cancer, Uterine Cancer |  | 
29 | 311 (YLHRQVAAV; listed as Homo sapiens) [compound 311] | SCLC, Melanoma, OC, Urinary bladder cancer |  | 
30 | 310 (VMAEAPPGV; listed as Homo sapiens) [compound 310] | Uterine Cancer |  | 
31 | 293 (GLAMVEAISYV; listed as Homo sapiens) [compound 293] | CLL, Urinary bladder cancer, Uterine Cancer |  | 
32 | 184 (AVLGTSWQL; listed as Homo sapiens) [compound 184] | CRC, CLL, AML |  | 
33 | 314 (LIDDKGTIKL; listed as Homo sapiens) [compound 314] |  | Urinary Bladder Cancer | 
34 | 282 (YLLEQGAQV; listed as Homo sapiens) [compound 282] | SCLC, HCC, CLL, Melanoma | AML, HNSCC | 
35 | 283 (ALMPVTPQA; listed as Homo sapiens) [compound 283] | CLL |  | 
36 | 251 (VLYELFTYI; listed as Homo sapiens) [compound 251] | CLL | AML, HNSCC | 
37 | 297 (ILQNGLETL; listed as Homo sapiens) [compound 297] |  | Gallbladder Cancer, Bile Duct Cancer, AML | 
38 | 245 (KLIQLPVVYV; listed as Homo sapiens) [compound 245] | CLL, BRCA, OC, Urinary bladder cancer |  | 
39 | 261 (FLPETRIMTSV; listed as Homo sapiens) [compound 261] | SCLC, CLL, Melanoma, OC, Urinary bladder cancer |  | 
40 | 288 (RLAPEIVSA; listed as Homo sapiens) [compound 288] | HCC |  | 
41 | 205 (TLFYESPHL; listed as Homo sapiens) [compound 205] |  | CLL | 
